No constants are given. Whether binding was seen depends on the method and setting. In cells and extracts the contact can be indirect. Some results given as binding are weak or reduced against the parent protein; the word gives no strength.
Target: T1, constitutive 20S proteolytic subunit β5 (mouse (endogenous in MIN6)) (UniProt O55234)
T1 sequence: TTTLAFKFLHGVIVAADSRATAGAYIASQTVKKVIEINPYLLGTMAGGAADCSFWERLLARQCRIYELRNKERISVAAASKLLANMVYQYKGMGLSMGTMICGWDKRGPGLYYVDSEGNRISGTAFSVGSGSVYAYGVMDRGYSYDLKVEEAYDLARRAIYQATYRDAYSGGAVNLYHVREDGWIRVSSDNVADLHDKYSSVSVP
Assay: co-IP; MIN6 whole cell extract (extraction buffer with 200 mM KCl, 2 mM ATP, 0.5% Triton X-100), cells untreated or treated 24 hours with 150 units/ml IFNβ; 70 μg extract with 50 μg rabbit IgG to β5 C-terminal peptide, β5i C-terminal peptide or β5i middle part, or pre-immune control IgG, and Protein A beads, 1 hour at 4°C, washed with TBST; Western blot

binding: binds
B1: inducible (immune) 20S proteolytic subunit β5i (protein, UniProt P28063 73-276)
chain: TTTLAFKFQHGVIVAVDSRATAGSYISSLRMNKVIEINPYLLGTMSGCAADCQYWERLLAKECRLYYLRNGERISVSAASKLLSNMMLQYRGMGLSMGSMICGWDKKGPGLYYVDDNGTRLSGQMFSTGSGNTYAYGVMDSGYRQDLSPEEAYDLGRRAIAYATHRDNYSGGVVNMYHMKEDGWVKVESSDVSDLLYKYGEAAL

From paper PMC3562186
